Test results published in patent US5336763A, “Trisazo dye and dye composition containing the same” (Orient Chemical Industries, Ltd., priority 1992, dated 1994).

Tests used:
[1] = Water resistance of writing (drawdown paper dipped in tap water, Macbeth densitometer); conditions: drawdown paper air-dried one day
[2] = Light resistance of writing (drawdown paper exposed to sunlight); parameters: key: A: Little discoloration is observed; B: Discoloration is observed; C: Discoloration is severe; conditions: exposed to sunlight for one month

Compound | Writing evaluation: Water resistance [1] | Writing evaluation: Light resistance [2]
Nc1ccc(N=Nc2ccc(Oc3cccc(Oc4ccc(N=Nc5c(S(=O)(=O)O)cc6cc(S(=O)(=O)O)c(N=Nc7ccccc7)c(O)c6c5N)cc4)c3)cc2)c(O)c1 [Ex. 1] | A (Reflection density is more than 70% of that before testing) | B
Nc1c(N=Nc2ccc(Oc3cccc(Oc4ccc(N=Nc5ccc(O)cc5O)cc4)c3)cc2)c(S(=O)(=O)O)cc2cc(S(=O)(=O)O)c(N=Nc3ccccc3)c(O)c12 [Ex. 2] | B (Reflection density is 50 to 70% of that before testing) | B
CCC(C)c1ccc(N=Nc2c(S(=O)(=O)O)cc3cc(S(=O)(=O)O)c(N=Nc4ccc(Oc5cccc(Oc6ccc(N=Nc7ccc(O)cc7O)cc6)c5)cc4)c(N)c3c2O)cc1 (stereo not shown) [Ex. 3] | A (Reflection density is more than 70% of that before testing) | B
Nc1ccc(N=Nc2ccc(Oc3ccc(Oc4ccc(N=Nc5c(S(=O)(=O)O)cc6cc(S(=O)(=O)O)c(N=Nc7ccccc7)c(O)c6c5N)cc4)cc3)cc2)c(O)c1 [Ex. 4] | A (Reflection density is more than 70% of that before testing) | B
Nc1c(N=Nc2ccc(Oc3ccc(Oc4ccc(N=Nc5ccc(O)cc5O)cc4)cc3)cc2)c(S(=O)(=O)O)cc2cc(S(=O)(=O)O)c(N=Nc3ccccc3)c(O)c12 [Ex. 5] | B (Reflection density is 50 to 70% of that before testing) | B
CCC(C)c1ccc(N=Nc2c(S(=O)(=O)O)cc3cc(S(=O)(=O)O)c(N=Nc4ccc(Oc5ccc(Oc6ccc(N=Nc7ccc(O)cc7O)cc6)cc5)cc4)c(N)c3c2O)cc1 (stereo not shown) [Ex. 6] | A (Reflection density is more than 70% of that before testing) | B
Cc1ccccc1N=Nc1c(S(=O)(=O)O)cc2cc(S(=O)(=O)O)c(N=Nc3ccc(Oc4ccc(Oc5ccc(N=Nc6ccc(O)cc6O)cc5)cc4)cc3)c(N)c2c1O [Ex. 7] | A (Reflection density is more than 70% of that before testing) | B
Nc1ccc(N=Nc2ccc(Oc3ccc(Oc4ccc(N=Nc5c(S(=O)(=O)O)cc6cc(S(=O)(=O)O)c(N=Nc7ccc(S(=O)(=O)O)cc7)c(O)c6c5N)cc4)cc3)cc2)c(O)c1 [Ex. 8] | B (Reflection density is 50 to 70% of that before testing) | B
Nc1ccc(N=Nc2ccc(Oc3cccc(Oc4ccc(N=Nc5cc(S(=O)(=O)O)c6cc(S(=O)(=O)O)c(N=Nc7ccccc7)c(O)c6c5N)cc4)c3)cc2)c(O)c1 [Ex. 9] | A (Reflection density is more than 70% of that before testing) | B
Nc1c(N=Nc2ccc(Oc3ccc(Oc4ccc(N=Nc5ccc(O)cc5O)cc4)cc3)cc2)cc(S(=O)(=O)O)c2ccc(N=Nc3ccccc3)c(O)c12 [Ex. 10] | A (Reflection density is more than 70% of that before testing) | B
Nc1ccc2c(O)c(N=Nc3ccccc3)c(S(=O)(=O)O)cc2c1N=Nc1ccc(Oc2ccc(Oc3ccc(N=Nc4ccc(O)cc4O)cc3)cc2)cc1 [Ex. 11] | A (Reflection density is more than 70% of that before testing) | B
Cc1cc(-c2ccc(N=Nc3c(S(=O)(=O)O)cc4cc(S(=O)(=O)O)c(N=Nc5ccccc5)c(O)c4c3N)c(C)c2)ccc1N=Nc1ccc(N)cc1N [compound 1, reference compound] | B (Reflection density is 50 to 70% of that before testing) | B
Nc1ccc(N=Nc2ccc(S(=O)(=O)c3ccc(N=Nc4c(S(=O)(=O)O)cc5cc(S(=O)(=O)O)c(N=Nc6ccccc6)c(O)c5c4N)cc3)cc2)c(O)c1 [compound 2, reference compound] | C (Reflection density is less than 50% that before testing) | B
Cc1cc(-c2ccc(N=Nc3c(S(=O)(=O)O)cc4cc(S(=O)(=O)O)c(N=Nc5ccc(S(=O)(=O)O)cc5)c(O)c4c3N)c(C)c2)ccc1N=Nc1ccc(O)cc1O [compound 3, reference compound] | C (Reflection density is less than 50% that before testing) | B
